Values of other authors in article PMC7101422, “N-Phenethyl Substitution in 14-Methoxy-N-methylmorphinan-6-ones Turns Selective µ Opioid Receptor Ligands into Dual µ/δ Opioid Receptor Agonists” (Scientific Reports, 2020).
Marks after values point to notes of the source that are not given here.

Test system: mice
Conditions: tail-flick, s.c., at 30 min (peak effect); cited from earlier work

CN1CC[C@]23c4c5ccc(O)c4O[C@H]2[C@@H](O)C=C[C@H]3[C@H]1C5 [Morphine (1), Morphine, reference compound]
ED50 (95% CL): 3.06 (1.76–5.31)^b mg/kg
